Seven molecules from article doi:10.1101/192781 can be followed below.

By UniProt entry, the sequences of proteins in these tests, tags left out. Where a name states a change or a piece, a line headed by the entry shows the natural chain unless it says otherwise. Chains listed by the source or under a name are the forms on record and can include a tag or linker. Residues count along the entry.
UniProt Q6PDQ2: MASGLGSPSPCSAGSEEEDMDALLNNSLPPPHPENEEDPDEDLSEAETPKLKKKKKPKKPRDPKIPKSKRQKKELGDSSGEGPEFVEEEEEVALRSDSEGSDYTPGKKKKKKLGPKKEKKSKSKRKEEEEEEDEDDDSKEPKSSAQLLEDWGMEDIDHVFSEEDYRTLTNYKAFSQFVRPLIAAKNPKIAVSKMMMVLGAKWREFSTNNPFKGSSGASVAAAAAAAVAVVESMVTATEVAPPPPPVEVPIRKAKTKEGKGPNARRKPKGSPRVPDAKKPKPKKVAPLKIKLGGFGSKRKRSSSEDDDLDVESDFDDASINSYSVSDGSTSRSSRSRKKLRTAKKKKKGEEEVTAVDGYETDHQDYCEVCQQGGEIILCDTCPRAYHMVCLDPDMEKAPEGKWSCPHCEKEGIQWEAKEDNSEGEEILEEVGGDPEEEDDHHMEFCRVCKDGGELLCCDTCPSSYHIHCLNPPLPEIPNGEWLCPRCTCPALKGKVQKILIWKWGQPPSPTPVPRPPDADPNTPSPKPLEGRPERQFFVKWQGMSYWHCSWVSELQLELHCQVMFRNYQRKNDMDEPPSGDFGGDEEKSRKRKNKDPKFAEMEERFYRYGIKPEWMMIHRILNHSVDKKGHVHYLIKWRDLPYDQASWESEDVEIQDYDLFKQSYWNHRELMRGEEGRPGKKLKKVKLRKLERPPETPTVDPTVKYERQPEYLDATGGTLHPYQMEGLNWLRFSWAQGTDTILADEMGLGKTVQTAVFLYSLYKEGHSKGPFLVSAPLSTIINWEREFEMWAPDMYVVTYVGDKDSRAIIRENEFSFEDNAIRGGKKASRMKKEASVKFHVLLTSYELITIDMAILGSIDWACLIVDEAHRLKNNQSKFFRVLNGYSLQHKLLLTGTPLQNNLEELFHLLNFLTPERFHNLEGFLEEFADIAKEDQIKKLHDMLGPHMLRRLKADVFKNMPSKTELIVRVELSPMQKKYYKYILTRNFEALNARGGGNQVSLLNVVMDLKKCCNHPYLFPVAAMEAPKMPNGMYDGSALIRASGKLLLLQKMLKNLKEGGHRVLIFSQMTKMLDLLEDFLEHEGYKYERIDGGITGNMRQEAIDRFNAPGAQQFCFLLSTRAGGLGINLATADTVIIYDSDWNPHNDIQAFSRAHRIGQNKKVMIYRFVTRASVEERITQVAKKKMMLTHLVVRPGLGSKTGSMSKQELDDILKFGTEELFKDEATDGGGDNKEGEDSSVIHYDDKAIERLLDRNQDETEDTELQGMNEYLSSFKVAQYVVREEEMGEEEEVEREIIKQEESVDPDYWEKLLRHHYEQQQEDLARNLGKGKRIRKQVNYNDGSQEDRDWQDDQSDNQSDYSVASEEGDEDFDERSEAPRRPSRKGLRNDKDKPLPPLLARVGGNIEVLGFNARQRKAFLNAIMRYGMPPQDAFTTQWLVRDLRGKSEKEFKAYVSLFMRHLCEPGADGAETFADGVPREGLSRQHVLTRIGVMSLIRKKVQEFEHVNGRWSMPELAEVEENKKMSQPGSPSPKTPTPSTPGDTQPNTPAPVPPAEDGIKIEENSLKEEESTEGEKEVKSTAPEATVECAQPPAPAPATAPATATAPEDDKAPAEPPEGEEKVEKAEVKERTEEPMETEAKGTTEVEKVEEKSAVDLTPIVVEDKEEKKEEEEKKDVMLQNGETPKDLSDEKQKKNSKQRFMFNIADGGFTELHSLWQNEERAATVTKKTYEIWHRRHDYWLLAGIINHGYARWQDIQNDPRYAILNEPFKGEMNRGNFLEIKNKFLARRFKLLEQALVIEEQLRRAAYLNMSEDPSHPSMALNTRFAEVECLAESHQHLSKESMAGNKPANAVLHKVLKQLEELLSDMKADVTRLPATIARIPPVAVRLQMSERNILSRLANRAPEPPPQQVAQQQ
UniProt Q9Z2D8: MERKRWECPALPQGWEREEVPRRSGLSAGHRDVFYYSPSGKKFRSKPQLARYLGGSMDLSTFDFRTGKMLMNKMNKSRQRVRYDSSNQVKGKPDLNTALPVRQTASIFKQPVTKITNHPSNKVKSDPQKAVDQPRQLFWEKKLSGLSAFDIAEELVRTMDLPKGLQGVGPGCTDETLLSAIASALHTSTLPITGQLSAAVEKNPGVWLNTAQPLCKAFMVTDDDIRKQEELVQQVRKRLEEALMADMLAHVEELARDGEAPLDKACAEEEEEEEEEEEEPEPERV
HA-MBD (methyl-binding domain of Mbd3): residues 1-170 of Q9Z2D8
2xFlag-ΔCCR-Mbd3 (Q9Z2D8, form named): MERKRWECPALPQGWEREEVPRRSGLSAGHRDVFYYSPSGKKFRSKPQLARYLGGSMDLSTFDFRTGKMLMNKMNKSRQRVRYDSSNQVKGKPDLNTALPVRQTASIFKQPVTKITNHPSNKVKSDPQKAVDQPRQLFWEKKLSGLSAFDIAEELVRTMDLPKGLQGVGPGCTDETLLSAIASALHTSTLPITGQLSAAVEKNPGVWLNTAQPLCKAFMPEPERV
UniProt Q8CHY6: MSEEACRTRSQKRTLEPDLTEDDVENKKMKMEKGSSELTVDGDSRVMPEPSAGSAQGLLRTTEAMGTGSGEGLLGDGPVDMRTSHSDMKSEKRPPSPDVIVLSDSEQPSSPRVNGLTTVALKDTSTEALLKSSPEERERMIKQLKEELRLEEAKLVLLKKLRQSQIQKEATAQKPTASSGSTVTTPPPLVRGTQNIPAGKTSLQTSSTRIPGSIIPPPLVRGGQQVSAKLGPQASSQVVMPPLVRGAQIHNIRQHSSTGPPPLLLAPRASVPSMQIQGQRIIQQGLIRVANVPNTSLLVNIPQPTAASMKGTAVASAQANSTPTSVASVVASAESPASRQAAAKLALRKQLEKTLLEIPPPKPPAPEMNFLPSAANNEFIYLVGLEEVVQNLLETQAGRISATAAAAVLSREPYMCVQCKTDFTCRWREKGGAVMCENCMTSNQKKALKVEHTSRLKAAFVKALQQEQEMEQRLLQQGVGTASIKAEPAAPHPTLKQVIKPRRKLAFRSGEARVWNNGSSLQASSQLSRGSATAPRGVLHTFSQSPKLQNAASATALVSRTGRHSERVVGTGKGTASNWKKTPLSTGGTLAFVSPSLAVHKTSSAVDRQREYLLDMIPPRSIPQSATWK
UniProt Q92769: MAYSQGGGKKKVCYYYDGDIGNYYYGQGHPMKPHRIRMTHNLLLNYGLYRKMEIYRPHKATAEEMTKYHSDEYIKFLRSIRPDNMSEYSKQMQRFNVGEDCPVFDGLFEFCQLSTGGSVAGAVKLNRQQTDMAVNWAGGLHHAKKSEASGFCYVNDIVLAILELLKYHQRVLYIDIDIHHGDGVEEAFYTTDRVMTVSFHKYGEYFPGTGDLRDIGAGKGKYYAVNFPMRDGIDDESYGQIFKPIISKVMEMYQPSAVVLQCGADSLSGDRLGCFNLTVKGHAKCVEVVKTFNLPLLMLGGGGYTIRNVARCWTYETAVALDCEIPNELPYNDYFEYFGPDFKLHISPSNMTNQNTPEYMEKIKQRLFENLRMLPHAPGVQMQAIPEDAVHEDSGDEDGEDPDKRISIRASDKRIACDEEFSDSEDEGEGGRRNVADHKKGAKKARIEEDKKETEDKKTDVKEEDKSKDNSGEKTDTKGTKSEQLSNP
UniProt Q9R190: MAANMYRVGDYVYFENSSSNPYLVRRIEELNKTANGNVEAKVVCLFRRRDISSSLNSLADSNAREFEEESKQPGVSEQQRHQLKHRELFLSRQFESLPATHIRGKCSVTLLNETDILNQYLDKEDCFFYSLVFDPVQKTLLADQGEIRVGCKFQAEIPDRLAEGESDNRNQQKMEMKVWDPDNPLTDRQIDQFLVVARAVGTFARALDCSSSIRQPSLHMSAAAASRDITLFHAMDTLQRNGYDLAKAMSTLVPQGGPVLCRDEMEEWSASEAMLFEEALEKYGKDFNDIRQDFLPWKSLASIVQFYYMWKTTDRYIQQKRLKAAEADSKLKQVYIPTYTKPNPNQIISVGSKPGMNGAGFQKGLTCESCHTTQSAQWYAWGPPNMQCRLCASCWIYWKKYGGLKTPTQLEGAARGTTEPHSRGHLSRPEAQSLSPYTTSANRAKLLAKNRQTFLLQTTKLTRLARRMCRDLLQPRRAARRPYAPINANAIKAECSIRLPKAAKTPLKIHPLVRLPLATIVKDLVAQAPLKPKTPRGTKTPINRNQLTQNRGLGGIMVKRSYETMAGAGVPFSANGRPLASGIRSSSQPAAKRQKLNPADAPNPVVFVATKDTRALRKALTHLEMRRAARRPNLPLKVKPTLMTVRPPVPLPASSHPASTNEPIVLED
UniProt Q14839: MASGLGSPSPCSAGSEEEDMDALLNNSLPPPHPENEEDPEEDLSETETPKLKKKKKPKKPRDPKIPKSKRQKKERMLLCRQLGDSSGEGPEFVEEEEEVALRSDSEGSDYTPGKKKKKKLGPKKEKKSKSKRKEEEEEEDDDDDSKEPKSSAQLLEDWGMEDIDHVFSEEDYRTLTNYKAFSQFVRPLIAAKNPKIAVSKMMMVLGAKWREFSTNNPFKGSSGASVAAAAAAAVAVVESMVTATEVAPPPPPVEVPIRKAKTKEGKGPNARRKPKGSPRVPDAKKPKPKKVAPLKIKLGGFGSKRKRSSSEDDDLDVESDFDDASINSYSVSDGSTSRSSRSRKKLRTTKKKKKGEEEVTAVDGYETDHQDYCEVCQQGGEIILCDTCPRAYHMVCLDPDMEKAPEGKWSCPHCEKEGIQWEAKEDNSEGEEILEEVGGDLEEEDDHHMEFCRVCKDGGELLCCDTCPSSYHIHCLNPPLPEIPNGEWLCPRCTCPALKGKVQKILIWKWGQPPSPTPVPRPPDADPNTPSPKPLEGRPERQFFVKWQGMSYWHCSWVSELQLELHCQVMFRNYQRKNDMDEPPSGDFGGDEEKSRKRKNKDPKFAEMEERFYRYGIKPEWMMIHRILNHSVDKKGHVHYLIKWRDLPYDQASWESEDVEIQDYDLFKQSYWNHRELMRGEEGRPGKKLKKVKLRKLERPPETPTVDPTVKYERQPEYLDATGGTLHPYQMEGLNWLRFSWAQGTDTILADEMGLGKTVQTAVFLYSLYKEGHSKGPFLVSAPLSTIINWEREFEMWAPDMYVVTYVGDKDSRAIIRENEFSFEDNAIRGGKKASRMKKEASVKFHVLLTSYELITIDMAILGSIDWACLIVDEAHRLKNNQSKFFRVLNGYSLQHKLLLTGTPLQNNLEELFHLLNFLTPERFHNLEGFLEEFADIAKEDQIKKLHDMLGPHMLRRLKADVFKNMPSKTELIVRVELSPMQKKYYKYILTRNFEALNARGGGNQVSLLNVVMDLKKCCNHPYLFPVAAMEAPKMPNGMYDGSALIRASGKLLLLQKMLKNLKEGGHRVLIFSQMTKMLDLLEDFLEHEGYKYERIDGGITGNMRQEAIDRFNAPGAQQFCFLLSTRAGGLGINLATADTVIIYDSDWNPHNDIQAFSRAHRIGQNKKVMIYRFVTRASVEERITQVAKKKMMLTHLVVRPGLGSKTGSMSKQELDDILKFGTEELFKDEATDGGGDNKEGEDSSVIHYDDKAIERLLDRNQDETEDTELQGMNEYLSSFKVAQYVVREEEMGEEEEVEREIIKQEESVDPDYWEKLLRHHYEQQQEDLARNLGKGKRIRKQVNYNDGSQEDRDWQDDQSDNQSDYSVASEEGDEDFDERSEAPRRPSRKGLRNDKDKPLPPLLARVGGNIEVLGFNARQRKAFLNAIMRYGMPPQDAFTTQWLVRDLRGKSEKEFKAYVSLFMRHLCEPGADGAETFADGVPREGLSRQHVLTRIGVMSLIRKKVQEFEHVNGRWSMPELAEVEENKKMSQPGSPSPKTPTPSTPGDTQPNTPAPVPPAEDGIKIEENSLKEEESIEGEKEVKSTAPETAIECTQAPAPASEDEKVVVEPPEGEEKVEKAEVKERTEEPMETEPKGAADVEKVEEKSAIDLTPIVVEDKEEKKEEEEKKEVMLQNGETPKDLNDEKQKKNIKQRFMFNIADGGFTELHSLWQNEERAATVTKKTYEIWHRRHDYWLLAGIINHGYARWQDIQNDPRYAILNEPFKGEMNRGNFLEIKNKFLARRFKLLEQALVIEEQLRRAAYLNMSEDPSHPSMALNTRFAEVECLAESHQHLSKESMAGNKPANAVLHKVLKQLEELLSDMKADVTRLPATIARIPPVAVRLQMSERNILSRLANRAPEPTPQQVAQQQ

Where two headings read alike, the source gives them in different places. Results are given in words; binding and its absence hold for the method and conditions named. Binding seen in cells or lysates may run through a third protein. Some results given as binding are weak or reduced against the parent protein; the word gives no strength.

Test in all cases: co-IP
The target in assay [1] is Chd4 (chromodomain helicase DNA binding protein 4) (mouse (endogenous in MEF and ES cells)) (UniProt Q6PDQ2).
The target in another assay is 2XFlag-WT-Mbd3 (UniProt Q9Z2D8).
The target of assay [2] is HA-MBD (methyl-binding domain of Mbd3) (UniProt Q9Z2D8).
In assay [3] the target is 2XFlag-Mbd3 (DOX inducible allele, Rosa26-M2RtTA+/- Col1a:TetO-2XFlag-Mbd3+/-) (UniProt Q9Z2D8).
Assay [4] shares this target. This is another data set of the same source.
In a further assay the target is 2xFlag-ΔCCR-Mbd3 (UniProt Q9Z2D8).
The target in assay [5] is 2XFlag-Mbd3 (DOX inducible allele, Rosa26-M2RtTA+/- Col1a:TetO-2XFlag-Mbd3+/-) (UniProt Q9Z2D8). This is another data set of the same source.

Regarding Gatad2a (from UniProt Q8CHY6 1-629), the binding result in assay [1] is listed as “binds”.

As for “Gatad2a-WT (construct) (from UniProt Q8CHY6 1-629)”, in the assay with 2XFlag-WT-Mbd3, the binding result is “binds”.

Take “HA-Gatad2a-CCR1 (from UniProt Q8CHY6 140-174) (peptide)”: in the assay with 2XFlag-WT-Mbd3, the binding result is listed as “binds”.

In the case of “Hdac2 (in 293T cells) (from UniProt Q92769 1-488)”, the binding result (in assay [2]; with 2XFlag-WT-Mbd3) was “binds” in each case.

Consider Mta2 (from UniProt Q9R190 1-668), for which the binding entry in assay [1], in assay [3] and in assay [4] was “binds” in each case.

Turning to “endogenous Chd4 (293T cells) (from UniProt Q14839 1-1912)”, the binding entry (with 2xFlag-ΔCCR-Mbd3; in assay [2]) was “no binding” in each case.

B1: Cdk2ap1 (protein, UniProt O35207 1-114)
chain: MSYKPNLTAHMPAAALNAGSVHSPSTSMATSSQYRQLLSDYGPPSLGYTQGTGNSQVPQSKYAELLAIIEELGKEIRPTYAGSKSAMERLKRGIIHARSLVRECLAETERNARS
For the molecule B1, the binding entry in assay [5] was “binds”.
